{"source": "PubChem BioAssay AID493014", "about": "(National Center for Advancing Translational Sciences (NCATS), 2011)", "experiment": "qHTS Assay to Find Inhibitors of Chronic Active B-Cell Receptor Signaling", "conditions": "ABC-DLBCL IkBa-CBG/CBR reporter, luminescence ratio (green luciferase fused to IkBa over red control in TMD8 lymphoma cells), 4 h", "procedure,_shortened": "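Concentration-response series (up to 46 uM) were applied to TMD8 dual-reporter cells for 4 h at 37C with doxycycline. Green/red ratio, after filter-overlap correction, defined %Activity; red signal alone was normalised to basal cells and zero luminescence.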", "key": {"[1]": {"conditions": "measured here: CBR red luminescence, cell number"}, "[2]": {"conditions": "measured here: IkBa-CBG green luminescence"}}, "note": "The other results are listed elsewhere or left out. The main result of the screen is listed elsewhere. These columns were measured beside it and carry no call. The list favours compounds with an active or inconclusive main result. Words in brackets tell the shape of the fitted curve; partial curves, single points and poor fits give uncertain potencies."}
{"molecule": "CCc1ccc(C(=O)COC(=O)c2cc([N+](=O)[O-])ccc2NCCO)cc1", "values": [{"measurement": "AC50", "setting": "[1]", "value": "20.6 µM [rising, single point]"}]}
{"molecule": "O=C(CNC(=O)c1ccc(S(=O)(=O)N2CCCC2)cc1)N/N=C/c1ccccc1Cl", "values": [{"measurement": "AC50", "setting": "[1]", "value": "8.2 µM [rising, partial curve, poor fit]"}]}
{"molecule": "O=C(COC(=O)c1c(F)cccc1Cl)NC(=O)Nc1ccc2c(c1)OCCO2", "values": [{"measurement": "AC50", "setting": "[1]", "value": "20.6 µM [rising, single point]"}]}
{"molecule": "CC(=O)Nc1nc2ccc(S(=O)(=O)N3CCCCC3)cc2s1", "values": [{"measurement": "AC50", "setting": "[1]", "value": "3.98 µM [rising, partial curve, poor fit]"}]}
{"molecule": "C=C(C)CNC(=S)N/N=C1\\CCCCc2ccccc21", "values": [{"measurement": "AC50", "setting": "[1]", "value": "18.4 µM [rising, partial curve]"}, {"measurement": "AC50", "setting": "[2]", "value": "18.4 µM [falling, partial curve, poor fit]"}]}
{"molecule": "O=C(Nc1cccc2cccnc12)c1cccc2ccccc12", "values": [{"measurement": "AC50", "setting": "[1]", "value": "29.1 µM [rising, single point]"}]}
{"molecule": "S=C(Nc1ccccc1)Nc1nccs1", "values": [{"measurement": "AC50", "setting": "[1]", "value": "22.4 µM [falling, partial curve, poor fit]"}, {"measurement": "AC50", "setting": "[2]", "value": "12.6 µM [falling, partial curve]"}]}
{"molecule": "O=C(NCCN1Cc2ccccc2C1=O)c1cccs1", "values": [{"measurement": "AC50", "setting": "[1]", "value": "5.17 µM [falling, full curve]"}]}
{"molecule": "O=C(O)COc1ccccc1/C=N/NC(=O)c1cc2ccccc2cc1O", "values": [{"measurement": "AC50", "setting": "[1]", "value": "20 µM [falling, single point]"}]}
{"molecule": "CCc1ccccc1NC(=O)CN1CCN(C(=O)c2ccc(OCc3cn4ccccc4n3)cc2)CC1", "values": [{"measurement": "AC50", "setting": "[1]", "value": "0.103 µM [rising, full curve, poor fit]"}]}
{"molecule": "CC(=C/c1ccco1)/C=N/NC(=O)c1ccncc1", "values": [{"measurement": "AC50", "setting": "[1]", "value": "10 µM [falling, partial curve, poor fit]"}]}
{"molecule": "COc1ccc(C(=O)COC(=O)c2ccccn2)c(OC)c1", "values": [{"measurement": "AC50", "setting": "[1]", "value": "18.4 µM [rising, partial curve, poor fit]"}]}
{"molecule": "COC(=O)c1ccc(C2c3c(oc4ccc(Cl)cc4c3=O)C(=O)N2CCN2CCOCC2)cc1", "note": "(centres undefined)", "values": [{"measurement": "AC50", "setting": "[1]", "value": "11.2 µM [falling, partial curve]"}]}
{"molecule": "COc1ccc(/C=C(\\C#N)c2c[nH]c3ccccc23)cc1", "values": [{"measurement": "AC50", "setting": "[1]", "value": "15.8 µM [rising, partial curve]"}, {"measurement": "AC50", "setting": "[2]", "value": "15.8 µM [falling, partial curve]"}]}
{"molecule": "O=C(C1CCN(C2CCN(Cc3cccc4c3OCO4)CC2)CC1)N1CCOCC1", "values": [{"measurement": "AC50", "setting": "[1]", "value": "7.94 µM [rising, partial curve, poor fit]"}]}
{"molecule": "CCCOC(=O)c1ccc(NC(=O)c2cnccn2)cc1", "values": [{"measurement": "AC50", "setting": "[1]", "value": "0.224 µM [rising, full curve, poor fit]"}]}
{"molecule": "COc1ccc(-c2nnc(SCC(=O)Nc3cccnc3Cl)n2C)cc1", "values": [{"measurement": "AC50", "setting": "[1]", "value": "7.31 µM [rising, partial curve, poor fit]"}]}
{"molecule": "CCOc1ccc(-c2noc(CCCC(N)=O)n2)cc1OC", "values": [{"measurement": "AC50", "setting": "[1]", "value": "9.2 µM [falling, partial curve]"}]}
{"molecule": "COc1ccc(/C=N/Nc2nnc(Cc3ccccc3)c(=O)[nH]2)cc1OC", "values": [{"measurement": "AC50", "setting": "[1]", "value": "0.112 µM [rising, full curve, poor fit]"}]}
{"molecule": "CCN(CC)C(=O)COc1ccc2oc(-c3ccco3)cc(=O)c2c1", "values": [{"measurement": "AC50", "setting": "[1]", "value": "1.78 µM [falling, partial curve, poor fit]"}]}
{"molecule": "CC(Oc1ccccc1)C(=O)Nc1cccc(-c2nc3ccccc3[nH]2)c1", "note": "(centres undefined)", "values": [{"measurement": "AC50", "setting": "[1]", "value": "1.26 µM [falling, full curve]"}]}
{"molecule": "Cc1[nH]n(-c2ccccc2)c(=O)c1/C=N/N1C(=O)c2cccc3cccc(c23)C1=O", "values": [{"measurement": "AC50", "setting": "[1]", "value": "35.5 µM [rising, partial curve, poor fit]"}, {"measurement": "AC50", "setting": "[2]", "value": "35.5 µM [falling, single point]"}]}
{"molecule": "O=C1CCCC(=O)C1=Cc1c[nH]c2ccccc12", "values": [{"measurement": "AC50", "setting": "[1]", "value": "2.59 µM [falling, full curve, poor fit]"}]}
{"molecule": "Cc1sc2nc(CN3CCCCC3)nc(N3CCN(C(=O)c4ccco4)CC3)c2c1C", "values": [{"measurement": "AC50", "setting": "[1]", "value": "35.5 µM [falling, single point]"}]}
{"molecule": "O=C(N/N=C/c1ccc(N2CCOCC2)cc1)c1ccccn1", "values": [{"measurement": "AC50", "setting": "[1]", "value": "35.5 µM [falling, single point]"}]}
{"molecule": "Cc1ccc(S(=O)(=O)CNC(=S)c2ccc3ccccc3c2)cc1", "values": [{"measurement": "AC50", "setting": "[2]", "value": "20.6 µM [falling, single point]"}]}
{"molecule": "COc1cccc(/C(O)=C2/C(=O)C(=O)N(c3ccccn3)C2c2ccc(OC)c(OC)c2)c1", "note": "(centres undefined)", "values": [{"measurement": "AC50", "setting": "[1]", "value": "4.47 µM [falling, partial curve, poor fit]"}]}
{"molecule": "Nc1ccccc1O", "values": [{"measurement": "AC50", "setting": "[1]", "value": "1.64 µM [falling, full curve]"}]}
{"molecule": "CCOc1ccc(NC(=O)Nc2ccccc2SC)cc1", "values": [{"measurement": "AC50", "setting": "[1]", "value": "7.08 µM [falling, partial curve, poor fit]"}]}
{"molecule": "CCOC(=O)c1c[nH]c2c(C(=O)c3ccccc3)cc(Cl)cc2c1=O", "values": [{"measurement": "AC50", "setting": "[1]", "value": "0.794 µM [rising, full curve, poor fit]"}]}
{"molecule": "COCCNC(=O)COc1ccc(Br)cc1Cl", "values": [{"measurement": "AC50", "setting": "[1]", "value": "23.1 µM [rising, single point]"}]}
{"molecule": "CCN1CCN(Cc2ccc(NC(=O)c3ccc(C)c(NC(=O)c4ccno4)c3)cc2C(F)(F)F)CC1", "values": [{"measurement": "AC50", "setting": "[1]", "value": "0.562 µM [falling, full curve]"}]}
{"molecule": "c1cncc(-c2noc(C34CC5CC(CC(C5)C3)C4)n2)c1", "values": [{"measurement": "AC50", "setting": "[1]", "value": "1.46 µM [falling, partial curve]"}]}
{"molecule": "CC1Oc2ccccc2N(CC(=O)Nc2ccccc2F)C1=O", "note": "(centres undefined)", "values": [{"measurement": "AC50", "setting": "[1]", "value": "0.708 µM [rising, full curve, poor fit]"}]}
{"molecule": "CC1CCCCC12NC(=O)N(CC(=O)N1CCN(C(=O)c3ccco3)CC1)C2=O", "note": "(centres undefined)", "values": [{"measurement": "AC50", "setting": "[1]", "value": "29.1 µM [rising, single point]"}]}
{"molecule": "Oc1ccccc1/C=N/Nc1nc2ccccc2o1", "values": [{"measurement": "AC50", "setting": "[1]", "value": "7.08 µM [falling, partial curve, poor fit]"}]}
{"molecule": "CCn1c(Cn2nnc(-c3ccccc3)n2)nnc1SCc1ccc(Cl)c(Cl)c1", "values": [{"measurement": "AC50", "setting": "[1]", "value": "2.06 µM [falling, single point]"}]}
{"molecule": "Cc1cc(=O)n(CCCc2ccccc2)[nH]1", "values": [{"measurement": "AC50", "setting": "[2]", "value": "23.1 µM [falling, partial curve, poor fit]"}]}
{"molecule": "O=C(O)c1ccccc1N=Nc1c(O)[nH]c2ccc([N+](=O)[O-])cc12", "values": [{"measurement": "AC50", "setting": "[1]", "value": "8.91 µM [falling, partial curve, poor fit]"}]}
{"molecule": "CCN(CC)S(=O)(=O)c1ccc2oc(Nc3ccc(OC)cc3OC)nc2c1", "values": [{"measurement": "AC50", "setting": "[1]", "value": "10 µM [rising, partial curve, poor fit]"}]}
